The source of these data is paper doi:10.1101/2022.04.06.487297 (bioRxiv, 2022).

Protein sequences, listed by entry. Tags and fused reporters are not part of them.
UniProt Q60598: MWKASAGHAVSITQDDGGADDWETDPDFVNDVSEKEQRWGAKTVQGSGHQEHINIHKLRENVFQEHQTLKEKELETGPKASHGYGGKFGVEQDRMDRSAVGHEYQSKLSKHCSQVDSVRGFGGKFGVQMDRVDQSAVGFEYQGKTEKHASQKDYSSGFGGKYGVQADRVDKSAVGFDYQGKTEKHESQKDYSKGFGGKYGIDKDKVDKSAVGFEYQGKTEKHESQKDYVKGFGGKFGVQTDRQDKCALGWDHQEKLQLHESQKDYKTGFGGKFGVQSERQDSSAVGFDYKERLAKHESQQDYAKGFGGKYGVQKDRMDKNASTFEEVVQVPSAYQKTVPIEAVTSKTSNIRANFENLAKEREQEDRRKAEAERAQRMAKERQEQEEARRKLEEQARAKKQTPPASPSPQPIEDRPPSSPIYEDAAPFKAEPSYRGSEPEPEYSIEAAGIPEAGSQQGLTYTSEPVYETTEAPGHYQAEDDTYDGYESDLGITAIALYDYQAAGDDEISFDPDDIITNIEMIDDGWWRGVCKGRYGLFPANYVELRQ
UniProt Q14289: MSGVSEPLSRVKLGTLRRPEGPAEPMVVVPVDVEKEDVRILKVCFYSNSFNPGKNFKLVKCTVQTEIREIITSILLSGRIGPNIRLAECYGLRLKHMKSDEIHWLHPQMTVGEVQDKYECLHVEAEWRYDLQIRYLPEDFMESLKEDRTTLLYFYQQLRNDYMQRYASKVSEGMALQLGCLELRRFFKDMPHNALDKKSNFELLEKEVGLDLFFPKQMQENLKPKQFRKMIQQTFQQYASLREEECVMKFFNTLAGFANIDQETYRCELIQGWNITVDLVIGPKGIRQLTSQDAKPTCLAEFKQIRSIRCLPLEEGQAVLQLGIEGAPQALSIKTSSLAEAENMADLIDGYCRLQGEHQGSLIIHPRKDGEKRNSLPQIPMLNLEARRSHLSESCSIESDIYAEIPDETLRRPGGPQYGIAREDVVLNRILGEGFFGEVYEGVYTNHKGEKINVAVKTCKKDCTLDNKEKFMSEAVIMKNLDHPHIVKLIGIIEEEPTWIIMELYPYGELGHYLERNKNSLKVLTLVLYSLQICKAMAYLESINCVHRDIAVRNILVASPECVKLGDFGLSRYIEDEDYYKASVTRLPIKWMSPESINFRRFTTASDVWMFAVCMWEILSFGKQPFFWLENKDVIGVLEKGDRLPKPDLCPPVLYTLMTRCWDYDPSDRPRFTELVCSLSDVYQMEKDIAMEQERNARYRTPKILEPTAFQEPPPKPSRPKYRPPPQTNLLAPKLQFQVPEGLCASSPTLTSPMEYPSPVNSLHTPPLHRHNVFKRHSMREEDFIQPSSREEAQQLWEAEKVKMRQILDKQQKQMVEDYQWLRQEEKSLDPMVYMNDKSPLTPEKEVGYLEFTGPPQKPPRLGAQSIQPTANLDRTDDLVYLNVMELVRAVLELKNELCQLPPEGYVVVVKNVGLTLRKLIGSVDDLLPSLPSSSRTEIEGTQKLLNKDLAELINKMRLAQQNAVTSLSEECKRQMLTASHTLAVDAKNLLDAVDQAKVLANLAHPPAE

The assay concerns the target cortactin-TagRFP (UniProt Q60598). Description: FRET or BRET.

These are yes or no findings as the source states them, for the method shown. Binding seen in cells or lysates may run through a third protein. Some results given as binding are weak or reduced against the parent protein; the word gives no strength.

For “Pyk2 (proline-rich tyrosine kinase 2), pY402 form (from UniProt Q14289 1-1009)”, the binding entry is listed as “binds”.
